The target of this experiment is eGFP-myosin VI (full-length), expressed in LNCaP cells (UniProt Q9UM54). Put plainly: affinity purification with mass spectrometry; GFP-Trap agarose immunoprecipitation from RIPA lysates of LNCaP cells expressing eGFP-myosin VI or eGFP alone, treated with EtOH or DHT; label-free mass spectrometry; DHT compared with EtOH.

Protein sequences, listed by entry. Tags and fused reporters are not part of them. Lines headed by an entry give the natural chain unless they say otherwise; changes in a name come on top.
UniProt Q9UM54: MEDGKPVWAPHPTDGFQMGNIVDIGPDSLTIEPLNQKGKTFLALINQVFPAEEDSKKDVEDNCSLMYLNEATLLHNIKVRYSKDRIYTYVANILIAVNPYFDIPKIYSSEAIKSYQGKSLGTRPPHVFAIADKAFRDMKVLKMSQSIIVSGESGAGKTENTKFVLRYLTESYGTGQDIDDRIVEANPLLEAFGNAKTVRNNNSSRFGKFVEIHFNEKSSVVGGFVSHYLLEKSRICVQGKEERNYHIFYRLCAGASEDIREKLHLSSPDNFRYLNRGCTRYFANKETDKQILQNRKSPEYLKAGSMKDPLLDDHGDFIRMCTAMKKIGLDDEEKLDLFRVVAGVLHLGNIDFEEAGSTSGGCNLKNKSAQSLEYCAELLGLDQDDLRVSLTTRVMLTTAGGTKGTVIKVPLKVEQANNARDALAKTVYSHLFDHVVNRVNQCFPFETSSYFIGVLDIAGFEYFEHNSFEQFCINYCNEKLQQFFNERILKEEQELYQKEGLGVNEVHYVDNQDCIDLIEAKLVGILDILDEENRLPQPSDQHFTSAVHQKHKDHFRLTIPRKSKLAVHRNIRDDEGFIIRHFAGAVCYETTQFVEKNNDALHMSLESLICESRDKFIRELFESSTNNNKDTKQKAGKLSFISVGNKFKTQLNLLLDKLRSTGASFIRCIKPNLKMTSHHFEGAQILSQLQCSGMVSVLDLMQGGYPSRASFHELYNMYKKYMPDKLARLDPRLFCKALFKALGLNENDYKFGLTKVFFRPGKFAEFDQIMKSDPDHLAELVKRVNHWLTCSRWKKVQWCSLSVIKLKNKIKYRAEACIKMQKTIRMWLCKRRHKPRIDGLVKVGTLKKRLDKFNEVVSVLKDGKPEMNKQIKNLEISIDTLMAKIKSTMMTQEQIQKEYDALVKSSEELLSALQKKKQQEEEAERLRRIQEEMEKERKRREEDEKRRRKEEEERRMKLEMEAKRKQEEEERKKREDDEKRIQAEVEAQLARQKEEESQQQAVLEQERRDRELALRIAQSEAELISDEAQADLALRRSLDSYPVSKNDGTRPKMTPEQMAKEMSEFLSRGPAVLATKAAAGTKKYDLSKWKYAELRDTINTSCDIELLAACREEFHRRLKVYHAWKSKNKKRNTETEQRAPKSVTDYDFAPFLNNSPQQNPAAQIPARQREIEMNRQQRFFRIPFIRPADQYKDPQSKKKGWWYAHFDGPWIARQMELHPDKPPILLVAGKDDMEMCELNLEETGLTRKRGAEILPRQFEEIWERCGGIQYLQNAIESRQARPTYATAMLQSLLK
UniProt P07288: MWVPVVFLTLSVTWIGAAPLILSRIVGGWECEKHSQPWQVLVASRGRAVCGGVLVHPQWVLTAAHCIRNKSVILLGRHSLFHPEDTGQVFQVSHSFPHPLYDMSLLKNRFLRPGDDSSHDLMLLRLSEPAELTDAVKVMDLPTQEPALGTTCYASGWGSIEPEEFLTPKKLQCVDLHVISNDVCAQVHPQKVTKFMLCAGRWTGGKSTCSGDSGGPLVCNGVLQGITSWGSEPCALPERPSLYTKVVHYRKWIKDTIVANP
UniProt P10275: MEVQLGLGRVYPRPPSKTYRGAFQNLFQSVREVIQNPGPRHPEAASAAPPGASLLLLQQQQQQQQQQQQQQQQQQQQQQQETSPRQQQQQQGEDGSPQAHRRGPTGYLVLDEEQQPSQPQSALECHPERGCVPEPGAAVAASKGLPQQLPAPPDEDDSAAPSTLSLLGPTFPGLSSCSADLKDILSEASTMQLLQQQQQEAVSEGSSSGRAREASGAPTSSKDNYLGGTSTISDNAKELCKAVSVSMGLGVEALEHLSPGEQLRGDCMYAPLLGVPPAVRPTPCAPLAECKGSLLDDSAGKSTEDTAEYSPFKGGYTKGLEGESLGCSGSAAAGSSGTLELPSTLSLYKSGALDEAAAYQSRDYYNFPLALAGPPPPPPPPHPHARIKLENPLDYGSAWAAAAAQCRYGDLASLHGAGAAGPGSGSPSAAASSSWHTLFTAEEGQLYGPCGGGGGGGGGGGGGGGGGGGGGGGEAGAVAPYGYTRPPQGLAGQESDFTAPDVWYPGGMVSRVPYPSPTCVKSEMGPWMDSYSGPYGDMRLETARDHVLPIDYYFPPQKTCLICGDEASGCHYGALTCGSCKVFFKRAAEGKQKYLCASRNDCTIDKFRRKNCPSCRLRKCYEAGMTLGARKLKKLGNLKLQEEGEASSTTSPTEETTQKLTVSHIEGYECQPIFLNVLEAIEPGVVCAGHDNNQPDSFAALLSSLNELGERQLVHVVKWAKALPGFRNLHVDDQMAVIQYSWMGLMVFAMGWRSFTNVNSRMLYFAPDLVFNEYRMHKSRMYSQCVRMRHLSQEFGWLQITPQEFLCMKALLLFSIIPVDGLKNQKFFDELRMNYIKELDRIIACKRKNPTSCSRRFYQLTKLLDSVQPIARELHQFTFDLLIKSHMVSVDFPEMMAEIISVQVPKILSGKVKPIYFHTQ

Results are given in words; binding and its absence hold for the method and conditions named. Binding seen in cells or lysates may run through a third protein. A yes stands for co-enrichment or nearness to the bait. Other partners may have been found.

“KLK3/prostate-specific antigen (PSA) (from UniProt P07288) (enzyme)”: the binding entry is “binds”.

In the case of “androgen receptor (AR), endogenous in LNCaP cells (from UniProt P10275 1-920)”, the binding entry is on record as “binds”.
